{"source": "paper PMC9070667", "about": "“Molecular insights into RNA recognition and gene regulation by the TRIM-NHL protein Mei-P26”", "key": {"[1]": {"target": "T1, Mei-P26 NHL wt (Drosophila melanogaster (Oregon-R)) (UniProt M9PH32)", "T1 sequence (looked up)": "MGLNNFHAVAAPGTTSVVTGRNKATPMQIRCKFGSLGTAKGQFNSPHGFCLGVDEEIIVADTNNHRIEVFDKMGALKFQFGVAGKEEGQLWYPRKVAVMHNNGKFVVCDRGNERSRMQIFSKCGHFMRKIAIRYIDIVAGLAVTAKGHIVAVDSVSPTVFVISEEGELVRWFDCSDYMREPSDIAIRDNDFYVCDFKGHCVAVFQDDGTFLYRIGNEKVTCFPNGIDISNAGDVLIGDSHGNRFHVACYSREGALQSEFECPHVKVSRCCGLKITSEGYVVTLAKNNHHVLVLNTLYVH", "assay": "MST", "conditions": "MST: 20 mM Hepes/KOH pH 7.5, 100 mM NaCl, 5 mM MgCl2, 5 mM DTT, 0.0125% Tween 20, 25 C (Brat: 20 mM Tris 8.0, 150 mM NaCl, 1 mM MgCl2, 5 mM DTT, 0.0125% Tween 20). EMSA; recombinant protein; residues 908-1206; protein details: GST removed by TEV; label: Cy5"}, "[2]": {"target": "T2, Mei-P26 NHL K1172A (Drosophila melanogaster (Oregon-R)) (UniProt M9PH32)", "T2 sequence (looked up)": "T1 sequence (looked up) with K265A", "assay": "MST", "conditions": "MST: 20 mM Hepes/KOH pH 7.5, 100 mM NaCl, 5 mM MgCl2, 5 mM DTT, 0.0125% Tween 20, 25 C (Brat: 20 mM Tris 8.0, 150 mM NaCl, 1 mM MgCl2, 5 mM DTT, 0.0125% Tween 20). EMSA; recombinant protein; residues 908-1206; protein details: GST removed by TEV; label: Cy5"}, "[3]": {"target": "T3, Mei-P26 NHL KR K1172A,R1175A (Drosophila melanogaster (Oregon-R)) (UniProt M9PH32)", "T3 sequence (looked up)": "T1 sequence (looked up) with K265A, R268A", "assay": "MST", "conditions": "MST: 20 mM Hepes/KOH pH 7.5, 100 mM NaCl, 5 mM MgCl2, 5 mM DTT, 0.0125% Tween 20, 25 C (Brat: 20 mM Tris 8.0, 150 mM NaCl, 1 mM MgCl2, 5 mM DTT, 0.0125% Tween 20). EMSA; recombinant protein; residues 908-1206; protein details: GST removed by TEV; label: Cy5"}, "[4]": {"target": "T4, Mei-P26 NHL R1175A (Drosophila melanogaster (Oregon-R)) (UniProt M9PH32)", "T4 sequence (looked up)": "T1 sequence (looked up) with R268A", "assay": "MST", "conditions": "MST: 20 mM Hepes/KOH pH 7.5, 100 mM NaCl, 5 mM MgCl2, 5 mM DTT, 0.0125% Tween 20, 25 C (Brat: 20 mM Tris 8.0, 150 mM NaCl, 1 mM MgCl2, 5 mM DTT, 0.0125% Tween 20). EMSA; recombinant protein; residues 908-1206; protein details: GST removed by TEV; label: Cy5"}, "[5]": {"target": "T5, Brat NHL (Drosophila melanogaster) (UniProt Q8MQJ9)", "T5 sequence (looked up, limits assumed)": "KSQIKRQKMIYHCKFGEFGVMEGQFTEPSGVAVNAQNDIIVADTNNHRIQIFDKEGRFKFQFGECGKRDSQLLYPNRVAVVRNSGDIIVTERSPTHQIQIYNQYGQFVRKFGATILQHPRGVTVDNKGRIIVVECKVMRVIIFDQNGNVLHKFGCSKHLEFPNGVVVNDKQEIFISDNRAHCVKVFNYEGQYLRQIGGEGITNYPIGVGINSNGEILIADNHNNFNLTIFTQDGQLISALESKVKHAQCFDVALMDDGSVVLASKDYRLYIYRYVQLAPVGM", "assay": "MST", "conditions": "MST: 20 mM Hepes/KOH pH 7.5, 100 mM NaCl, 5 mM MgCl2, 5 mM DTT, 0.0125% Tween 20, 25 C (Brat: 20 mM Tris 8.0, 150 mM NaCl, 1 mM MgCl2, 5 mM DTT, 0.0125% Tween 20). EMSA; recombinant protein; label: Cy5"}, "[6]": {"target": "T6, Mei-P26 NHL R1017A (Drosophila melanogaster (Oregon-R)) (UniProt M9PH32)", "T6 sequence (looked up)": "T1 sequence (looked up) with R110A", "assay": "MST", "conditions": "MST: 20 mM Hepes/KOH pH 7.5, 100 mM NaCl, 5 mM MgCl2, 5 mM DTT, 0.0125% Tween 20, 25 C (Brat: 20 mM Tris 8.0, 150 mM NaCl, 1 mM MgCl2, 5 mM DTT, 0.0125% Tween 20). EMSA, recombinant protein, residues 908-1206, protein details: GST removed by TEV"}, "[7]": {"target": "T7, Mei-P26 NHL RKR R1150A,K1172A,R1175A (Drosophila melanogaster (Oregon-R)) (UniProt M9PH32)", "T7 sequence (looked up)": "T1 sequence (looked up) with R243A, K265A, R268A", "assay": "EMSA", "conditions": "recombinant protein; residues 908-1206; protein details: GST removed by TEV; label: 32P"}, "[8]": {"target": "T1, Mei-P26 NHL wt (Drosophila melanogaster (Oregon-R))", "assay": "EMSA", "conditions": "recombinant protein; residues 908-1206; protein details: GST removed by TEV; label: 32P"}, "[9]": {"target": "T7, Mei-P26 NHL RKR R1150A,K1172A,R1175A (Drosophila melanogaster (Oregon-R))", "assay": "MST", "conditions": "MST: 20 mM Hepes/KOH pH 7.5, 100 mM NaCl, 5 mM MgCl2, 5 mM DTT, 0.0125% Tween 20, 25 C (Brat: 20 mM Tris 8.0, 150 mM NaCl, 1 mM MgCl2, 5 mM DTT, 0.0125% Tween 20). EMSA; recombinant protein; residues 908-1206; protein details: GST removed by TEV; label: Cy5 (MST), 32P (EMSA)"}}, "note": "Numbering of substitutions follows the chain as printed. pKd: −log10 of the molar value. For some assays here: Negatives hold for the conditions tested. For some assays here: At least one verdict was read from the data and is not stated in words by the source. Protein sequences can lack the tags named with them. For some assays here: The comparison behind a weaker result is the experiment's own reference, which may not be listed here. For some assays here: For at least one entry, the source does not settle the construct or the ends of the probe.", "data": [{"sequence": "UUGUUUU [SEQ13G]", "values": [{"measurement": "binding result", "setting": "[1]", "result": "binds more weakly"}]}, {"sequence": "UUUUUUUACA [SEQ37U]", "values": [{"measurement": "binding result", "setting": "[1]", "result": "binds"}]}, {"sequence": "UUUACAA [SEQ4]", "values": [{"measurement": "pKd", "setting": "[1]", "result": "< 5.52"}]}, {"sequence": "UUUUCAC", "values": [{"measurement": "binding result", "setting": "[1]", "result": "binds more weakly"}]}, {"sequence": "ACAUUUU [SEQ3Inv]", "values": [{"measurement": "binding result", "setting": "[1]", "result": "binds more weakly"}]}, {"sequence": "UUGUUAA [BRAT1]", "values": [{"measurement": "binding result", "setting": "[1]", "result": "binds more weakly"}]}, {"sequence": "UUUGUUU [SEQ14G]", "values": [{"measurement": "binding result", "setting": "[1]", "result": "binds more weakly"}]}, {"sequence": "UUUUACA [SEQ3]", "values": [{"measurement": "binding result", "setting": "[2]", "result": "binds more weakly"}, {"measurement": "binding result", "setting": "[3]", "result": "binds more weakly"}, {"measurement": "binding result", "setting": "[4]", "result": "binds more weakly"}, {"measurement": "pKd", "setting": "[5]", "result": "< 5.30"}, {"measurement": "binding result", "setting": "[6]; label: Cy5", "result": "binds more weakly"}]}, {"sequence": "UUUUUACA [SEQ35U]", "values": [{"measurement": "binding result", "setting": "[1]", "result": "binds"}]}, {"sequence": "UUUUUUUUUUUUUUUU [U16]", "values": [{"measurement": "binding result", "setting": "[7]", "result": "no binding"}, {"measurement": "binding result", "setting": "[8]", "result": "binds"}]}, {"sequence": "UUUUUUUUU [U9]", "values": [{"measurement": "binding result", "setting": "[9]", "result": "no binding"}, {"measurement": "binding result", "setting": "[6]; label: Cy5 (MST), 32P (EMSA)", "result": "binds more weakly"}]}]}
